{"source": "PubChem BioAssay AID504834", "about": "(National Center for Advancing Translational Sciences (NCATS), 2011)", "note": "Among all 320,000 compounds or so, about 22,000 (6.9%) were called active. Inconclusive means that the source gave no clear call. Such entries were picked first, then a sample of the others. Calls come from the whole dose curve; as a rule, active = well fitted inhibition curve with a large enough effect; inconclusive = small, poorly fitted or top-dose-only effect, or another doubt; inactive = no such curve, though single readings can be large or run the other way. A potency beside an inconclusive call is a rough fit, not a confirmed value. % is set by controls: 0 for no effect and ±100 for the full control effect; potency is the fitted concentration of half-maximal effect."}
{"assay": "Primary qHTS for delayed death inhibitors of the malarial parasite plastid, 96 hour incubation", "conditions": "P. falciparum luciferase reporter growth; series mostly up to 28.7 µM; activity change, negative = inhibition: at the top concentration", "in_short": "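Erythrocytes infected with luciferase-expressing P. falciparum were dispensed at 2% hematocrit and 0.05% parasitemia (final), then incubated with compounds 96 hours at 37 C in 5% CO2. Luminescence after detection reagent addition reported growth.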"}
{"smiles": "COc1cccc(NC(=S)N2CCN(c3ccccn3)CC2)c1", "Potency": "inconclusive: 13.1 µM [inhibitor, partial curve, poor fit]"}
{"smiles": "CCOc1ccc(CN(C)CC(=O)c2c(N)n(Cc3ccccc3)c(=O)n(CC)c2=O)cc1OC", "Potency": "inconclusive: 5.22 µM [inhibitor, partial curve]"}
{"smiles": "CC(C)NCC(O)(c1ccc(Cl)cc1)c1ccc(Cl)cc1", "Potency": "active: 1.47 µM"}
{"smiles": "O=C(NCc1ccccc1Cl)c1ccc(CSc2nc3ccncc3[nH]2)cc1", "Potency": "inconclusive: 11.7 µM [inhibitor, partial curve]"}
{"smiles": "COc1cc(NC(=O)COc2cccc(C)c2C)ccc1NC(=O)c1ccco1", "Potency": "inconclusive: 16.5 µM [inhibitor, partial curve, poor fit]"}
{"smiles": "COCCn1c(SCC(=O)N2CCCCC2)nc2c([nH]c3ccccc32)c1=O", "Potency": "inconclusive: 1.31 µM [inhibitor, partial curve]"}
{"smiles": "CCOc1ccc(N(CC(=O)NC(C)C)C(=O)CCC(=O)Nc2ccccn2)cc1", "Potency": "inconclusive: 0.0657 µM [inhibitor, full curve, poor fit]"}
{"smiles": "COc1ccc(CC(=O)NC(C)c2nnc(SCC(=O)Nc3ccccc3)n2C)cc1", "note": "(stereo unspecified)", "Potency": "inconclusive: 18.5 µM [inhibitor, single point]"}
{"smiles": "O=C(CCl)NC1(C(F)(F)F)C(=O)Nc2c1c(=O)[nH]c(=O)n2-c1ccccc1", "note": "(stereo unspecified)", "activity change, negative = inhibition": "inactive: 14%"}
{"smiles": "O=C(CSc1nnc(NC(=O)c2cccc(F)c2)s1)NC1CCCC1", "Potency": "inconclusive: 1.47 µM [inhibitor, full curve, poor fit]"}
{"smiles": "N#CCSc1nccc(-c2cc(Cl)sc2Cl)n1", "Potency": "inconclusive: 20.8 µM [inhibitor, partial curve, poor fit]"}
{"smiles": "CCc1ccc(OCCSc2nc3ccccc3n2CCC(=O)O)cc1", "Potency": "inconclusive: 18.5 µM [inhibitor, single point]"}
{"smiles": "Cc1ccccc1-c1nc(CS(=O)(=O)CC(=O)NCCc2ccccc2)c(C)o1", "Potency": "inconclusive: 6.57 µM [inhibitor, partial curve]"}
{"smiles": "COc1cc([N+](=O)[O-])cc(/C=N/NC(=O)CC#N)c1O", "Potency": "inconclusive: 1.85 µM [inhibitor, partial curve, poor fit]"}
{"smiles": "CC(C)(C)S(=O)(=O)c1cnc(-c2ccccn2)nc1N", "Potency": "inconclusive: 4.65 µM [inhibitor, full curve, poor fit]"}
{"smiles": "CC1(C)CC(NC(=O)c2cccc(Cl)c2)CC(C)(C)N1", "activity change, negative = inhibition": "inactive: -15.3%"}
{"smiles": "O=C(NCCN1C(=O)S/C(=C\\c2ccccc2)C1=O)c1cc(S(=O)(=O)N2CCOCC2)c(Cl)cc1Cl", "Potency": "inconclusive: 13.1 µM [inhibitor, partial curve, poor fit]"}
{"smiles": "COC(=O)c1cc(OC)c(OC)cc1NC(=O)c1ccc(OC)c(OC)c1", "Potency": "inconclusive: 9.28 µM [inhibitor, partial curve]"}
{"smiles": "C/C(=N\\NC(N)=S)c1ccc(Cl)s1", "Potency": "inconclusive: 11.7 µM [inhibitor, partial curve, poor fit]"}
{"smiles": "O=C(CSc1nnnn1C1CCCC1)N1CCCCC1", "Potency": "active: 0.586 µM"}
{"smiles": "Cn1c(=O)oc2cc(S(=O)(=O)Nc3cccc([N+](=O)[O-])c3)ccc21", "activity change, negative = inhibition": "inactive: 19.6%"}
{"smiles": "FC(F)(F)c1cc(-c2ccccc2)nc(NCC2CCCO2)n1", "note": "(stereo unspecified)", "activity change, negative = inhibition": "inactive: 47.7%"}
{"smiles": "O=C(CN1CCN(S(=O)(=O)c2ccccc2)CC1)Nc1ccc(N2CCOCC2)cc1", "Potency": "inconclusive: 18.5 µM [inhibitor, single point]"}
{"smiles": "Cc1ccc(S(=O)(=O)N2CCN(C(=O)CN3CCN(C)CC3)C2)cc1", "Potency": "inconclusive: 0.0828 µM [inhibitor, full curve, poor fit]"}
{"smiles": "CC(C)CN(CC(C)C)S(=O)(=O)N1CCC(C(=O)NCCN2CCOCC2)CC1", "Potency": "inconclusive: 0.0029 µM [inhibitor, full curve, poor fit]"}
{"smiles": "O=C(Nc1cccc(Cl)c1Cl)C1CCN(c2ncccn2)CC1", "activity change, negative = inhibition": "inactive: 28.7%"}
{"smiles": "COc1ccc(C(=O)Nc2ccc(N3CCN(C(=O)c4ccccc4)CC3)cc2)cc1[N+](=O)[O-]", "Potency": "inconclusive: 9.28 µM [inhibitor, single point]"}
{"smiles": "COc1ccccc1CNC(=O)C1CC(c2ccccc2[N+](=O)[O-])=NO1", "note": "(stereo unspecified)", "activity change, negative = inhibition": "inactive: 11.4%"}
{"smiles": "Cc1ccccc1NS(=O)(=O)c1cc(C(=O)NCCSC2CCCCC2)ccc1C", "Potency": "inconclusive: 14.7 µM [inhibitor, single point]"}
{"smiles": "COc1ccc(CSc2nnc(C)s2)cc1F", "Potency": "inconclusive: 13.1 µM [inhibitor, single point]"}
{"smiles": "COc1ccc(C)cc1NC(=O)CSc1nnc2ccc(-c3ccncc3)nn12", "Potency": "inconclusive: 10.4 µM [inhibitor, single point]"}
{"smiles": "CCc1ccc(NC(=S)NC2CC3CCCC(C2)N3Cc2cccs2)cc1", "note": "(stereo unspecified)", "Potency": "active: 2.08 µM"}
{"smiles": "Fc1ccccc1NC(=S)NCc1ccc2c(c1)OCO2", "Potency": "inconclusive: 4.65 µM [inhibitor, partial curve]"}
{"smiles": "CCn1nnnc1SCC(=O)Nc1ccc(OC)cc1", "Potency": "active: 14.7 µM"}
{"smiles": "COc1cc(C(=S)N2CCOCC2)cc(OC)c1OS(=O)(=O)c1ccc(Cl)cc1", "Potency": "active: 10.4 µM"}
{"smiles": "O=C(C1CCCN(S(=O)(=O)c2ccc([N+](=O)[O-])cc2)C1)N1CCCCC1", "note": "(stereo unspecified)", "activity change, negative = inhibition": "inactive: 83%"}
{"smiles": "CN1CCN(S(=O)(=O)c2csc(C(N)=O)c2)CC1", "activity change, negative = inhibition": "inactive: 4.6%"}
{"smiles": "O=C(c1ccc2ncsc2c1)N1CCCCC1", "activity change, negative = inhibition": "inactive: -12.1%"}
{"smiles": "Cc1cccc(N2C(=O)C(O)=C(C(=O)c3cccs3)C2c2ccccc2)n1", "note": "(stereo unspecified)", "activity change, negative = inhibition": "inactive: 13.4%"}
{"smiles": "O=C(Nc1nnc(C2CCCCC2)s1)c1ccco1", "Potency": "inconclusive: 11.7 µM [inhibitor, partial curve]"}
{"smiles": "Cc1ccccc1NS(=O)(=O)c1ccc(C(=O)NNC(=O)c2ccccc2O)cc1", "activity change, negative = inhibition": "inactive: -4.84%"}
{"smiles": "Cc1cccc2nc(Cn3c(=O)n(CCCC(=O)NCc4ccco4)c(=O)c4ccccc43)cc(=O)n12", "Potency": "inconclusive: 2.62 µM [inhibitor, full curve, poor fit]"}
{"smiles": "CCOc1cc(CNC(C)C)c(Cl)cc1OCC(=O)NCCc1ccccc1", "Potency": "inconclusive: 8.28 µM [inhibitor, single point]"}
{"smiles": "COc1ccc(-n2c(C)cc(C(=O)COC(=O)Cc3n[nH]c(=O)c4ccccc34)c2C)cc1", "Potency": "active: 2.08 µM"}
{"smiles": "O=C(CN1CCCCCC1)Nc1ccc(F)c(F)c1", "Potency": "inconclusive: 11.7 µM [inhibitor, single point]"}
{"smiles": "Cc1ccc(C(=O)NC2CCS(=O)(=O)C2)cc1S(=O)(=O)N1CCCC1", "note": "(stereo unspecified)", "Potency": "inconclusive: 18.5 µM [inhibitor, single point]"}
{"smiles": "Cc1cccc(OCc2nc(-c3nonc3N)no2)c1C", "Potency": "inconclusive: 13.1 µM [inhibitor, partial curve, poor fit]"}
{"smiles": "Nc1ccc2c(c1)sc1ccccc12", "Potency": "inconclusive: 6.57 µM [inhibitor, partial curve, poor fit]"}
{"smiles": "CCOC(=O)Cc1cc(=O)n2[nH]c(C)c(-c3ccc(OC)cc3)c2n1", "Potency": "inconclusive: 1.47 µM [inhibitor, full curve]"}
{"smiles": "O=C(c1ccc(Br)cc1)c1cc([N+](=O)[O-])ccc1N1CCCCC1", "Potency": "inconclusive: 11.7 µM [inhibitor, partial curve]"}
{"smiles": "CN(C)c1ccc(C(=O)c2ccc(N(C)C)c(N)c2)cc1N", "activity change, negative = inhibition": "inactive: -1.12%"}
{"smiles": "C1COC(NC(C2CC2)C2CC2)=N1", "Potency": "inconclusive: 9.28 µM [inhibitor, partial curve, poor fit]"}
{"smiles": "CCOC(=O)N1CCN(C(=O)c2ccc3c(=O)n(-c4ccc(F)cc4)c(=S)[nH]c3c2)CC1", "Potency": "inconclusive: 18.5 µM [inhibitor, single point]"}
{"smiles": "Cn1nnnc1Sc1ncnc2scc(-c3ccc[nH]3)c12", "Potency": "inconclusive: 11.7 µM [inhibitor, partial curve, poor fit]"}
{"smiles": "O=C(NCc1ccccc1Cl)C1CCN(S(=O)(=O)c2cccs2)CC1", "activity change, negative = inhibition": "inactive: 52.5%"}
{"smiles": "CCCCN(CC)CCCNC(=O)c1ccc(CSc2nc3ccncc3[nH]2)cc1", "Potency": "inconclusive: 13.1 µM [inhibitor, single point]"}
{"smiles": "O=C(N/N=C(\\Cc1ncc[nH]1)c1ccccc1)c1ccncc1", "Potency": "inconclusive: 16.5 µM [inhibitor, single point]"}
{"smiles": "CC(C)CN1C(=O)c2ccc(NC(=O)c3ccco3)cc2C1=O", "Potency": "inconclusive: 7.38 µM [inhibitor, partial curve]"}
{"smiles": "COc1cc(OC)c(OC)cc1NC(=O)CC1COc2ccccc2O1", "note": "(stereo unspecified)", "Potency": "inconclusive: 18.5 µM [inhibitor, single point]"}
{"smiles": "O=C(c1ccccc1N1CCOCC1)N1CCCC(Nc2ccc(F)cc2)C1", "note": "(stereo unspecified)", "activity change, negative = inhibition": "inactive: -2.69%"}
{"smiles": "COc1ccc(-c2csc(NC(=O)C3CCCO3)n2)cc1", "note": "(stereo unspecified)", "activity change, negative = inhibition": "inactive: 67.6%"}
{"smiles": "Cc1c(C(=O)Nc2cccnc2)oc2ccc(Br)cc12", "activity change, negative = inhibition": "inactive: 14.7%"}
{"smiles": "CC(=O)c1c(C(C)=O)c(C)n(C2CCCCC2)c1C", "Potency": "active: 1.47 µM"}
{"smiles": "CCn1nc(C)c(/C=C2\\CCCC3=C2OC(N)=C(C#N)C3c2c(C)nn(CC)c2C)c1C", "note": "(stereo unspecified)", "activity change, negative = inhibition": "inactive: 32.9%"}
{"smiles": "COCc1cc(C)n(CC(=O)N2CCCC2)c(=O)c1C#N", "Potency": "inconclusive: 0.586 µM [inhibitor, full curve, poor fit]"}
{"smiles": "Cc1c(C(=O)N2CCC3(CC2)OCCO3)oc2ccccc12", "activity change, negative = inhibition": "inactive: 38.1%"}
{"smiles": "CC1CCCCC1NC(=O)c1ccc(N2CCCC2=O)cc1", "note": "(stereo unspecified)", "Potency": "inconclusive: 9.28 µM [inhibitor, single point]"}
{"smiles": "O=C(Cc1cccc2ccccc12)N/N=C/c1ccc(OC(=O)/C=C/c2ccco2)cc1", "Potency": "inconclusive: 18.5 µM [inhibitor, single point]"}
{"smiles": "Cc1cc(C)n(-c2nc3c(c(=O)[nH]c(=O)n3C)n2CCc2ccccc2)n1", "activity change, negative = inhibition": "inactive: 3.01%"}
{"smiles": "COc1ccc(CCn2c(N)c(C(=O)NCc3ccco3)c3nc4ccccc4nc32)cc1", "activity change, negative = inhibition": "inactive: -21.3%"}
{"smiles": "O=c1[nH]cnc2c1sc1nc3c(c(-c4ccc(Cl)cc4)c12)CCC3", "Potency": "inconclusive: 0.185 µM [inhibitor, full curve, poor fit]"}
